Results are given in words; binding and its absence hold for the method and conditions named. Some entries that bind do so weakly or less than the wild type.

The target in assay [1] is GST-fused HEAT19 loop (899-956) (S. cerevisiae) (UniProt P53067). In words: pull-down.
In assay [2] the target is T1, Kap114p (S. cerevisiae), P53067.
T1 chain: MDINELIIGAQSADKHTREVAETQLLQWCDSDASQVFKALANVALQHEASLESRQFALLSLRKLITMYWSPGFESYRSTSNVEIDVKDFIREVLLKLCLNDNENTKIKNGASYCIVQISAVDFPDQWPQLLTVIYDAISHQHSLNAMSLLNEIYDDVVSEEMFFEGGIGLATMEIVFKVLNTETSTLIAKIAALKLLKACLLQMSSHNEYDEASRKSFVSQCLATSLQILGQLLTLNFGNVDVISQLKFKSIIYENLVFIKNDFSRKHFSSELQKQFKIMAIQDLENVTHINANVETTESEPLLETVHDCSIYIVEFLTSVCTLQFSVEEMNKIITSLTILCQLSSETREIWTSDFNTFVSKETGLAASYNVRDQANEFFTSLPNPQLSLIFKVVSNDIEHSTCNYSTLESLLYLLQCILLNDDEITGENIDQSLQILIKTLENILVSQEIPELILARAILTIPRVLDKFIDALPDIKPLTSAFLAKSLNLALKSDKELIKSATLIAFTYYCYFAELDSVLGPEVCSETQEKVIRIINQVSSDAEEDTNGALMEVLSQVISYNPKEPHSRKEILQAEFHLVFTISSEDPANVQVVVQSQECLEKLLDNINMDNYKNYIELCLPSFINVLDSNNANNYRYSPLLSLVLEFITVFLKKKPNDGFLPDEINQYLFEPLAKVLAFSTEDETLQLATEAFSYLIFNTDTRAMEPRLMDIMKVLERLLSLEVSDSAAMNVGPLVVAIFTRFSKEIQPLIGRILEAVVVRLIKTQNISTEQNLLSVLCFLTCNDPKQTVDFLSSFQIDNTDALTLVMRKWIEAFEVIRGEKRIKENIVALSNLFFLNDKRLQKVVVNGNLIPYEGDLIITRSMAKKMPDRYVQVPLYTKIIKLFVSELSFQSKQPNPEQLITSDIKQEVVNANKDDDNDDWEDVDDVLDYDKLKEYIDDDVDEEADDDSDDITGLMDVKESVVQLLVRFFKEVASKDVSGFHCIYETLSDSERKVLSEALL
Description: AUC. As to conditions: remark: other sources report otherwise.

B1: yTBP (61-240) (domain or fragment, S. cerevisiae, UniProt P13393 61-240, looked up)
chain: SGIVPTLQNIVATVTLGCRLDLKTVALHARNAEYNPKRFAAVIMRIREPKTTALIFASGKMVVTGAKSEDDSKLASRKYARIIQKIGFAAKFTDFKIQNIVGSCDVKFPIRLEGLAFSHGTFSSYEPELFPGLIYRMVKPKIVLLIFVSGKIVLTGAKQREEIYQAFEAIYPVLSEFRKM
B1: the binding entry in assay [1] is on record as “binds weakly”.

B2: Kap114p, P53067 1-1004 (natural protein)
chain: T1 chain
Turning to B2, in assay [2], the binding entry is on record as “no binding (tested: 0.86 mg/ml)”.

(Values after doi:10.1101/411223 (bioRxiv, 2018).)
